Article PMC5548719
Results are given in words; binding and its absence hold for the method and conditions named. For some assays here: In cells and extracts the contact can be indirect. Some results given as binding are weak or reduced against the parent protein; the word gives no strength. For some assays here: Tags and fused reporters may be left off the sequences shown.

Sequences of proteins named here, by UniProt entry; tags and fusion partners are left off.
UniProt Q9Y5Q3: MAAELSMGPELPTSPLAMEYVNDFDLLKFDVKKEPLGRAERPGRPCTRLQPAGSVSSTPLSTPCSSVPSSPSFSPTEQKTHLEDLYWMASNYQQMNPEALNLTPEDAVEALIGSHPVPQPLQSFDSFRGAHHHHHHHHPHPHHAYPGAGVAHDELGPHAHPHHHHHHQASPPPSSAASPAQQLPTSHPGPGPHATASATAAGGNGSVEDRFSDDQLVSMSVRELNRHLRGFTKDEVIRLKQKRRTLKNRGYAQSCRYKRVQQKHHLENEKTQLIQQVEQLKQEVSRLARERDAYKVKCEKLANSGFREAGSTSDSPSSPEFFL

Assays:
[1] = molecular target: Flag-MafB (not stated (human or mouse cDNA cloned)) (UniProt Q9Y5Q3); assay: co-IP; Immunoprecipitation from 293ETN cells expressing Flag-MafB; immunoblot for LXRα
[2] = molecular target: Flag-MafB (not stated (human or mouse cDNA cloned)) (UniProt Q9Y5Q3); assay: co-IP; Immunopurified Flag-MafB (M2 Affinity Gel) with Myc/DDK-LXRα obtained from OriGene; immunoprecipitation and immunoblot; both purified

Row | binding [1] | binding [2] | Binder
1 | binds |  | LXRα (in 293ETN cells) (protein, UniProt Q13133 1-447) MSLWLGAPVPDIPPDSAVELWKPGAQDASSQAQGGSSCILREEARMPHSAGGTAGVGLEAAEPTALLTRAEPPSEPTEIRPQKRKKGPAPKMLGNELCSVCGDKASGFHYNVLSCEGCKGFFRRSVIKGAHYICHSGGHCPMDTYMRRKCQECRLRKCRQAGMREECVLSEEQIRLKKLKRQEEEQAHATSLPPRASSPPQILPQLSPEQLGMIEKLVAAQQQCNRRSFSDRLRVTPWPMAPDPHSREARQQRFAHFTELAIVSVQEIVDFAKQLPGFLQLSREDQIALLKTSAIEVMLLETSRRYNPGSESITFLKDFSYNREDFAKAGLQVEFINPIFEFSRAMNELQLNDAEFALLIAISIFSADRPNVQDQLQVERLQHTYVEALHAYVSIHHPHDRLMFPRMLMKLVSLRTLSSVHSEQVFALRLQDKKLPPLLSEIWDVHE
2 |  | binds | Myc/DDK-LXRα (protein, UniProt Q13133 1-447) MSLWLGAPVPDIPPDSAVELWKPGAQDASSQAQGGSSCILREEARMPHSAGGTAGVGLEAAEPTALLTRAEPPSEPTEIRPQKRKKGPAPKMLGNELCSVCGDKASGFHYNVLSCEGCKGFFRRSVIKGAHYICHSGGHCPMDTYMRRKCQECRLRKCRQAGMREECVLSEEQIRLKKLKRQEEEQAHATSLPPRASSPPQILPQLSPEQLGMIEKLVAAQQQCNRRSFSDRLRVTPWPMAPDPHSREARQQRFAHFTELAIVSVQEIVDFAKQLPGFLQLSREDQIALLKTSAIEVMLLETSRRYNPGSESITFLKDFSYNREDFAKAGLQVEFINPIFEFSRAMNELQLNDAEFALLIAISIFSADRPNVQDQLQVERLQHTYVEALHAYVSIHHPHDRLMFPRMLMKLVSLRTLSSVHSEQVFALRLQDKKLPPLLSEIWDVHE
